Measurements from the supplement of paper PMC10849652.
This is one part of the list.

Amino acid sequences for entries named in this document (tags omitted). A change or cut given only in a name is not applied to a line headed by its entry.
UniProt Q15022: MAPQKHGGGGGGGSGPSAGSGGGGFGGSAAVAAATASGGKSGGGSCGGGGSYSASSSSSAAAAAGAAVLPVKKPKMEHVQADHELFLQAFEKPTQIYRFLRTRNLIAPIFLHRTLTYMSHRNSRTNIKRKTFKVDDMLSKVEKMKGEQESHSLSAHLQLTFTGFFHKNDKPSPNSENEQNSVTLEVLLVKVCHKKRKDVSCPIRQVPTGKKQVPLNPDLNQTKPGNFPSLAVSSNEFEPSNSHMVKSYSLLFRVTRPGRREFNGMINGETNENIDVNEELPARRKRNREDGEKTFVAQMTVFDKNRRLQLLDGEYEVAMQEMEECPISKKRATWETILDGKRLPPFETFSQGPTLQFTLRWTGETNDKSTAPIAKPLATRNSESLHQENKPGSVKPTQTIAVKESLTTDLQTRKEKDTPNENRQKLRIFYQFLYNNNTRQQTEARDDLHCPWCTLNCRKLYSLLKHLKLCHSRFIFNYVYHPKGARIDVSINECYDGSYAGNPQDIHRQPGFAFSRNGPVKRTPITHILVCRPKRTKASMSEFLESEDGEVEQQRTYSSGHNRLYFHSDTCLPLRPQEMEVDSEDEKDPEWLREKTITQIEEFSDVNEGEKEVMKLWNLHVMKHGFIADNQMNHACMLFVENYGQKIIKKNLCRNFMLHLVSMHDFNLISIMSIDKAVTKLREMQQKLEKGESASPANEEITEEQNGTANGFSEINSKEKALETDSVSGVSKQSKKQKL
UniProt Q16514: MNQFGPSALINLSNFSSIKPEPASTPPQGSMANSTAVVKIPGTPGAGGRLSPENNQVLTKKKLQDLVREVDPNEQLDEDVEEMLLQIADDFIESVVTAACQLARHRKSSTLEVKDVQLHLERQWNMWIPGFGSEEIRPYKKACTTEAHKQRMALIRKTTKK
UniProt Q6P1X5, whole entry, looked up: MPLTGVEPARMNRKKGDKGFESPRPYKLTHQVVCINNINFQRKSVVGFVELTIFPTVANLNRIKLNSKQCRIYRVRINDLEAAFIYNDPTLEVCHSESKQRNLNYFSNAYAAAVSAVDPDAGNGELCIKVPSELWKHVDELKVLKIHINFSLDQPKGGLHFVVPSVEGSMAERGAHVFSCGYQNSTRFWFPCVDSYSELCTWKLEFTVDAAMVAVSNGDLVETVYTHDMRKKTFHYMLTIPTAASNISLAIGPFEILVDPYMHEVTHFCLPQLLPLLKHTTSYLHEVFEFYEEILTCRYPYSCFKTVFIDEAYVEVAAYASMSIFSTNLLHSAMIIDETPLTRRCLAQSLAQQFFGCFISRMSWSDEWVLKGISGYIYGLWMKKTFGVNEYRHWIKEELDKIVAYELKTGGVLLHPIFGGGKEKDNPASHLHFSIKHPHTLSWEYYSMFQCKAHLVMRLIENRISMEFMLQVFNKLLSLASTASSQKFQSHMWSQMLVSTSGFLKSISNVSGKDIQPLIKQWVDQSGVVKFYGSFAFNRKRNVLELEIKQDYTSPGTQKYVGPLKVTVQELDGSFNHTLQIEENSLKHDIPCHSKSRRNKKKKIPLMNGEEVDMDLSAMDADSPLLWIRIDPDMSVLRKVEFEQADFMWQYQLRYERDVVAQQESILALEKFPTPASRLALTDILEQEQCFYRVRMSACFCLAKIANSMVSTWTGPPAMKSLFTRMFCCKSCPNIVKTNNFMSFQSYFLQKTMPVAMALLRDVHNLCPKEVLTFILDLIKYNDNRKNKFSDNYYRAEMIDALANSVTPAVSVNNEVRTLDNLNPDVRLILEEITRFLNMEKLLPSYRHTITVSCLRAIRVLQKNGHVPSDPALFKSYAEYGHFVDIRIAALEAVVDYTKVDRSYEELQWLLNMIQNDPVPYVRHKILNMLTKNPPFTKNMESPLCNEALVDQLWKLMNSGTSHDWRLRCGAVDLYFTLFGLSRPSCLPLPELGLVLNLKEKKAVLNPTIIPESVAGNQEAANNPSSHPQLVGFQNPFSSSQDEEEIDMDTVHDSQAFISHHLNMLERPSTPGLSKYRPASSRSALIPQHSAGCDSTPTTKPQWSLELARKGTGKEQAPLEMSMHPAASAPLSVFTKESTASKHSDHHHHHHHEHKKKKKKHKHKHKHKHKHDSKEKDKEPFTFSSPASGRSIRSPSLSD
UniProt P16949: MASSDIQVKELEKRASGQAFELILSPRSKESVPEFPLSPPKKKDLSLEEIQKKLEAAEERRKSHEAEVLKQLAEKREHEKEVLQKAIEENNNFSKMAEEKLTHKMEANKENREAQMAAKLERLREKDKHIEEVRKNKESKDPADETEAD
UniProt Q6ZWJ1: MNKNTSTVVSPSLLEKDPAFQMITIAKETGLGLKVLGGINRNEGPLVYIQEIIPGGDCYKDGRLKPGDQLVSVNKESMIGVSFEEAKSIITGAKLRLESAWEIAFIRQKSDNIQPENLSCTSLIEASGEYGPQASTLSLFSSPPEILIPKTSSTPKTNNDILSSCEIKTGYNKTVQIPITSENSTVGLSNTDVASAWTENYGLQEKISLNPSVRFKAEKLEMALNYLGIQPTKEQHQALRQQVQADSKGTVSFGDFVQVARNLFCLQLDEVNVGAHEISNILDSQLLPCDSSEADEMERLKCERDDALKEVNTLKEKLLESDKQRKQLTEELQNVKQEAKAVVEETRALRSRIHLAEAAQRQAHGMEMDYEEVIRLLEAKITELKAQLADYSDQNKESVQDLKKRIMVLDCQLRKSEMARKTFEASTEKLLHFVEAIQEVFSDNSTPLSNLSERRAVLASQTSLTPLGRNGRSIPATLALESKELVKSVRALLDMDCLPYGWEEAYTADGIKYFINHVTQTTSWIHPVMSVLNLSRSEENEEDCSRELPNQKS
UniProt P46977: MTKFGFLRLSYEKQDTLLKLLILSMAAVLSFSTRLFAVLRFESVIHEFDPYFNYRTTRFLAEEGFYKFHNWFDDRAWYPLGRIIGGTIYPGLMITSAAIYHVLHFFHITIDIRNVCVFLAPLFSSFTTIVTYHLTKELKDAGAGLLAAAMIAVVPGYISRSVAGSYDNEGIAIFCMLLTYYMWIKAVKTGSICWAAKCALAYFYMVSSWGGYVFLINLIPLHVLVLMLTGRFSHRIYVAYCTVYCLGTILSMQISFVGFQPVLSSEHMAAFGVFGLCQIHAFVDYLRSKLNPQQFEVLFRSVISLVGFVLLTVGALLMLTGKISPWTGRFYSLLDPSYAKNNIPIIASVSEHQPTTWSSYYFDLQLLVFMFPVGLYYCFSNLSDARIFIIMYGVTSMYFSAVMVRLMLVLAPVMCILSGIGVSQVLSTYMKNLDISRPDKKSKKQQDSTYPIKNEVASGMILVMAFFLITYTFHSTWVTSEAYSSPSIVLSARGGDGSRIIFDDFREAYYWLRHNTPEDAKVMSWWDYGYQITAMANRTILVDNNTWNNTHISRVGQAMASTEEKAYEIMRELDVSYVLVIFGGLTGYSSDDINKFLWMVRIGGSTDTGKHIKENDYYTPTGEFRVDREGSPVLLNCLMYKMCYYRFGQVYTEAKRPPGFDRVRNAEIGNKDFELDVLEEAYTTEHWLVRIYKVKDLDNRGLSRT
UniProt O94864: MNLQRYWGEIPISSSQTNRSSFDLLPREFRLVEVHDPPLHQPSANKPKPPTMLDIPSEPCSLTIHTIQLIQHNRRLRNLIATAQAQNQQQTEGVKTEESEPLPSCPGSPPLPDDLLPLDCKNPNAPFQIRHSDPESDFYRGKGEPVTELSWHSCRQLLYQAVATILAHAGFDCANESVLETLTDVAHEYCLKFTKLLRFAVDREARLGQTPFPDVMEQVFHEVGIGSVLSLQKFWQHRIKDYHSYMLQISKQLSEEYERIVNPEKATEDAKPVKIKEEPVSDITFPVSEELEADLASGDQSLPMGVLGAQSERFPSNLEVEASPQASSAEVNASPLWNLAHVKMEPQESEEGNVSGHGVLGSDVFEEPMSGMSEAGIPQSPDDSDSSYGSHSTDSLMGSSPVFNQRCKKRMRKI
UniProt Q96SI9: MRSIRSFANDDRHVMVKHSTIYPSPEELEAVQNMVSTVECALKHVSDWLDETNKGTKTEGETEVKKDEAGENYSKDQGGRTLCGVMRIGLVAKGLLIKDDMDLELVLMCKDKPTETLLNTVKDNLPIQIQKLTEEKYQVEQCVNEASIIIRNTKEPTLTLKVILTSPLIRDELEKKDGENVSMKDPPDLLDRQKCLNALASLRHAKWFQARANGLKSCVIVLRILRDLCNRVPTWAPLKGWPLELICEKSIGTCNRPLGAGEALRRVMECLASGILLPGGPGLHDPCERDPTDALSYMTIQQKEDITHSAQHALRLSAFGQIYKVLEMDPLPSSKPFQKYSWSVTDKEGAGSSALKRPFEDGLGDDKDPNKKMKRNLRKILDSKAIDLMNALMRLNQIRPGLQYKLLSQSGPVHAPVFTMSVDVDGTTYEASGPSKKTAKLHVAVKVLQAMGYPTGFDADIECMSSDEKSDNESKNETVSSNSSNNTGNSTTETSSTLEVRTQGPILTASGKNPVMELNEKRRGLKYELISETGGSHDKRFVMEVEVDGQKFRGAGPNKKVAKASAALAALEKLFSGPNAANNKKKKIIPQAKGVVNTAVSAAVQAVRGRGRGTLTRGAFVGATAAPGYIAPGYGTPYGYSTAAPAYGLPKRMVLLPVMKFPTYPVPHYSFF
UniProt Q9H7L9: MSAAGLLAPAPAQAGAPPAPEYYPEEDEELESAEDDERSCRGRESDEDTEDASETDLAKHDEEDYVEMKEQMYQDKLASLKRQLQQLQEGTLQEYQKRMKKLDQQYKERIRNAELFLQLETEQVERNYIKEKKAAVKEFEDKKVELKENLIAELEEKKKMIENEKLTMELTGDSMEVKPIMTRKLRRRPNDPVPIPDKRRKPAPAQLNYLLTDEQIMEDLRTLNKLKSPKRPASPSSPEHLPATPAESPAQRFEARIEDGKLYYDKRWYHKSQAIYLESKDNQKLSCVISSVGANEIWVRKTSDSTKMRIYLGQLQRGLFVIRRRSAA
UniProt Q13033: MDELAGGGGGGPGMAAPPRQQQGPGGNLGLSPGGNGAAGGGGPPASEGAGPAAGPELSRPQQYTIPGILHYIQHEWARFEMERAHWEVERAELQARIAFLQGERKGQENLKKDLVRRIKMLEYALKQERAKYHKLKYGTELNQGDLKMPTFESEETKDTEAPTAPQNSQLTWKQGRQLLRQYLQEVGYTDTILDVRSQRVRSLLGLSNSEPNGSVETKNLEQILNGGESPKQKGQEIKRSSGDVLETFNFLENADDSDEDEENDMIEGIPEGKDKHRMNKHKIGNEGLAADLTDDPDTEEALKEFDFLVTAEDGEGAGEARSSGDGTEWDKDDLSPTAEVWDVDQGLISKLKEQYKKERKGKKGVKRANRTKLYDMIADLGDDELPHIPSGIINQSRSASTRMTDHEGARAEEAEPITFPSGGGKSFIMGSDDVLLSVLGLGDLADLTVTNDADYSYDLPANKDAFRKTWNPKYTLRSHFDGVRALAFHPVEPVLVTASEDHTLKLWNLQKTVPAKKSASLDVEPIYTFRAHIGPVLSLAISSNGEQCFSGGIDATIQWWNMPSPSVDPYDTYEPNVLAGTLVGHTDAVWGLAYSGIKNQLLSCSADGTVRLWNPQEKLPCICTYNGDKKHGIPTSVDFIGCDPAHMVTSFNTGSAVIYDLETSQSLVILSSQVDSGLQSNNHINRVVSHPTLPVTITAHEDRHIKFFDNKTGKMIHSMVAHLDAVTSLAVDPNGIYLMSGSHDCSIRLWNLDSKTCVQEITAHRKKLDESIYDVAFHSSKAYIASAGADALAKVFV
UniProt Q8NBJ7: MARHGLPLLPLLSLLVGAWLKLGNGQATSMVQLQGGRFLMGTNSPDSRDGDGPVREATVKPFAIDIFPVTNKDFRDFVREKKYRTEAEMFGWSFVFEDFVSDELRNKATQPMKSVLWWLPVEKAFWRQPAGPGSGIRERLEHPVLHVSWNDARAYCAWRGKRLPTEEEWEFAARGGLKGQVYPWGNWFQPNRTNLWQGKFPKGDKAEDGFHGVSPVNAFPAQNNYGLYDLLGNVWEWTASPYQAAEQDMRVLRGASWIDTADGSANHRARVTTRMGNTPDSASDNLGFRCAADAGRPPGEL
UniProt P61956, whole entry, looked up: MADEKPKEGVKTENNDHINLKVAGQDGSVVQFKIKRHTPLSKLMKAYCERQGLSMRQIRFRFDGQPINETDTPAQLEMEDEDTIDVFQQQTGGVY
UniProt Q15831: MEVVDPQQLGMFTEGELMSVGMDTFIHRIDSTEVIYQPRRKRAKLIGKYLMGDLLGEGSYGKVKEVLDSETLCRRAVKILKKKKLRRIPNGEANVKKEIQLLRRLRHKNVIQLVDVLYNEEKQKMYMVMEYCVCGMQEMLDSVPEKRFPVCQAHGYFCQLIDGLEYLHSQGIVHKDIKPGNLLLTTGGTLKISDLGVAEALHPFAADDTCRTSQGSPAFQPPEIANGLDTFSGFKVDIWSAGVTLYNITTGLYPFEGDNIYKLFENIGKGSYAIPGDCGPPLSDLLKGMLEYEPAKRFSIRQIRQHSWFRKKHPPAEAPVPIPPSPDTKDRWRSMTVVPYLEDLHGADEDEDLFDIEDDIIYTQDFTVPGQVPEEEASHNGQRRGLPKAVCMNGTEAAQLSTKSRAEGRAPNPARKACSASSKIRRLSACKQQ

Experiments:
Test in all cases: log2 fold change, soluble protein after heating vs DMSO (PISA); higher = thermal stabilisation; K562 lysate, 10 uM; active = over 0.2 and 3.5 SD of the protein, either way, in both replicates (recomputed)
alvocidib = compound: CN1CC[C@H](c2c(O)cc(O)c3c(=O)cc(-c4ccccc4Cl)oc23)[C@H](O)C1 [alvocidib]
How it was run: (§1)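 K562 pellets were dounce-homogenised in PBS pH 7.4 with 1 mM MgCl2, and the crude extract at 1 mg/mL protein was treated with 10 μM compound for 30 min. Aliquots were heated for 3 min across 48°C-58°C, pooled, and brought to 0.5% NP-40 at 4°C; soluble protein was the supernatant after 21,000xg for 90 min. Soluble protein was quantified by TMTpro 16plex LC-MS/MS with channel sums equalised, and reported as log2 fold change in thermal stability against DMSO controls, with values from duplicates.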

Tubastatin A = compound: CN1CCc2c(c3ccccc3n2Cc2ccc(C(=O)NO)cc2)C1 [Tubastatin A]
How it was run: as §1

[1] = compound: CNC(=O)C1=CC=CC=C1NC2=NC(=NC=C2Cl)NC3=C(C=C(C=C3)N4CCOCC4)OC
How it was run: as §1

defactinib = compound: CNC(=O)c1ccc(Nc2ncc(C(F)(F)F)c(NCc3nccnc3N(C)S(C)(=O)=O)n2)cc1 [defactinib]
How it was run: as §1

[2] = compound: CNc1nc(-c2ccc3c(N)n[nH]c3c2)cc(N2C[C@@H](C(=O)NC3CCCCC3)CC[C@H]2C)n1
How it was run: as §1

encorafenib = compound: COC(=O)N[C@@H](C)CNc1nccc(-c2cn(C(C)C)nc2-c2cc(Cl)cc(NS(C)(=O)=O)c2F)n1 [encorafenib]
How it was run: as §1

[3] = compound: COC(=O)[C@H](CCSC)NC(=O)C1=C(C=C(C=C1)NC[C@H](CS)N)C2=CC=CC=C2
How it was run: as §1

alisertib = compound: COc1cc(Nc2ncc3c(n2)-c2ccc(Cl)cc2C(c2c(F)cccc2OC)=NC3)ccc1C(=O)O [alisertib]
How it was run: as §1

[4] = compound: COc1cc2nc(-c3cc(F)ccc3O)nc(N[C@@H]3CNC[C@H]3C(C)(C)O)c2cc1OC
How it was run: as §1

gefitinib = compound: COc1cc2ncnc(Nc3ccc(F)c(Cl)c3)c2cc1OCCCN1CCOCC1 [gefitinib]
How it was run: as §1

lapatinib = compound: CS(=O)(=O)CCNCc1ccc(-c2ccc3ncnc(Nc4ccc(OCc5cccc(F)c5)c(Cl)c4)c3c2)o1 [lapatinib]
How it was run: as §1

pictilisib = compound: CS(=O)(=O)N1CCN(Cc2cc3nc(-c4cccc5[nH]ncc45)nc(N4CCOCC4)c3s2)CC1 [pictilisib]
How it was run: as §1

crizotinib = compound: C[C@@H](Oc1cc(-c2cnn(C3CCNCC3)c2)cnc1N)c1c(Cl)ccc(F)c1Cl [crizotinib]
How it was run: as §1

[5] = compound: C[C@H](C1=CC=C(C=C1)C(=O)NC2=C3C=CNC3=NC=C2)N
How it was run: as §1

duvelisib = compound: C[C@H](Nc1ncnc2nc[nH]c12)c1cc2cccc(Cl)c2c(=O)n1-c1ccccc1 [duvelisib]
How it was run: as §1

gandotinib = compound: Cc1cc(Nc2cc(CN3CCOCC3)c3nc(C)c(Cc4ccc(Cl)cc4F)n3n2)n[nH]1 [gandotinib]
How it was run: as §1

tozasertib = compound: Cc1cc(Nc2cc(N3CCN(C)CC3)nc(Sc3ccc(NC(=O)C4CC4)cc3)n2)n[nH]1 [tozasertib]
How it was run: as §1

doramapimod = compound: Cc1ccc(-n2nc(C(C)(C)C)cc2NC(=O)Nc2ccc(OCCN3CCOCC3)c3ccccc23)cc1 [doramapimod]
How it was run: as §1

bafetinib = compound: Cc1ccc(NC(=O)c2ccc(CN3CC[C@H](N(C)C)C3)c(C(F)(F)F)c2)cc1Nc1nccc(-c2cncnc2)n1 [bafetinib]
How it was run: as §1

[6] = compound: Cc1cccc(CC(=O)N2CCc3c2ccc(-c2cn(C)c4ncnc(N)c24)c3F)n1
How it was run: as §1

Measured: log2 fold change

SUZ12 (UniProt Q15022)
inactive: alvocidib -0.004 | Tubastatin A -0.012 | [1] 0.009 | defactinib 0.049 | [2] 0.027 | encorafenib 0 | [3] 0.101 | alisertib -0.057 | [4] -0.062 | gefitinib 0.062 | lapatinib 0.015 | pictilisib 0.043 | crizotinib -0.021 | [5] 0.048 | duvelisib -0.016 | gandotinib 0.027 | tozasertib 0.006 | doramapimod 0 | bafetinib -0.113 | [6] 0.009

TAF15 (UniProt Q92804)
inactive: alvocidib 0.04 | Tubastatin A 0.022 | [1] -0.007 | defactinib 0.024 | [2] 0.015 | encorafenib -0.03 | [3] -0.068 | alisertib 0.06 | [4] -0.007 | gefitinib -0.065 | lapatinib 0.013 | pictilisib -0.016 | crizotinib 0.091 | [5] 0.049 | duvelisib 0.004 | gandotinib -0.015 | tozasertib -0.017 | doramapimod -0.063 | bafetinib 0.04 | [6] -0.058

TAF12 (UniProt Q16514)
inactive: alvocidib 0.021 | Tubastatin A -0.022 | [1] -0.027 | defactinib -0.033 | [2] 0.003 | encorafenib 0.076 | [3] 0.017 | alisertib -0.087 | [4] 0.05 | gefitinib 0.033 | lapatinib 0.037 | pictilisib 0.023 | crizotinib -0.001 | [5] -0.043 | duvelisib 0.018 | gandotinib 0.031 | tozasertib -0.031 | doramapimod 0.065 | bafetinib 0.036 | [6] -0.03

TAF2 (UniProt Q6P1X5)
inactive: alvocidib 0.032 | Tubastatin A -0.085 | [1] 0.03 | defactinib 0.006 | [2] -0.098 | encorafenib -0.002 | [3] -0.011 | alisertib 0.041 | [4] -0.008 | gefitinib 0.05 | lapatinib -0.002 | pictilisib -0.123 | crizotinib -0.051 | [5] 0.042 | duvelisib -0.008 | gandotinib -0.067 | tozasertib 0.003 | doramapimod 0.013 | bafetinib -0.028 | [6] 0.036

STMN1 (UniProt P16949)
inactive: alvocidib 0.024 | Tubastatin A 0.075 | [1] -0.013 | defactinib 0.039 | [2] 0.05 | encorafenib -0.021 | [3] -0.029 | alisertib -0.014 | [4] -0.003 | gefitinib -0.03 | lapatinib -0.024 | pictilisib 0 | crizotinib 0.033 | [5] -0.027 | duvelisib -0.014 | gandotinib 0 | tozasertib -0.016 | doramapimod -0.051 | bafetinib 0.018 | [6] -0.088

STXBP4 (UniProt Q6ZWJ1)
inactive: alvocidib 0.05 | Tubastatin A -0.079 | [1] 0.044 | defactinib 0.086 | [2] 0.021 | encorafenib 0.067 | [3] -0.019 | alisertib -0.011 | [4] 0.019 | gefitinib 0.013 | lapatinib 0.032 | pictilisib -0.033 | crizotinib 0 | [5] 0.033 | duvelisib -0.025 | gandotinib 0.007 | tozasertib 0.025 | doramapimod 0.023 | bafetinib 0.014 | [6] -0.006

STT3A (UniProt P46977)
inactive: alvocidib -0.006 | Tubastatin A -0.041 | [1] -0.007 | defactinib 0.009 | [2] -0.116 | encorafenib 0.053 | [3] -0.042 | alisertib 0.046 | [4] -0.07 | gefitinib 0.034 | lapatinib -0.016 | pictilisib -0.001 | crizotinib -0.001 | [5] -0.065 | duvelisib 0.015 | gandotinib -0.008 | tozasertib 0.017 | doramapimod 0.042 | bafetinib -0.031 | [6] 0.041

SUPT7L (UniProt O94864)
inactive: alvocidib 0.011 | Tubastatin A -0.115 | [1] 0.064 | defactinib 0.026 | [2] 0.037 | encorafenib 0.095 | [3] 0.057 | alisertib 0.105 | [4] 0.07 | gefitinib 0.046 | lapatinib -0.085 | pictilisib 0.01 | crizotinib -0.144 | [5] 0.028 | duvelisib 0.011 | gandotinib 0.01 | tozasertib 0.036 | doramapimod -0.047 | bafetinib 0.021 | [6] 0.041

STRBP (UniProt Q96SI9)
inactive: alvocidib -0.043 | Tubastatin A -0.023 | [1] 0.03 | defactinib 0.011 | [2] 0.087 | encorafenib 0.067 | [3] 0.098 | alisertib -0.003 | [4] 0.012 | gefitinib -0.004 | lapatinib -0.005 | pictilisib 0 | crizotinib -0.006 | [5] -0.016 | duvelisib -0.008 | gandotinib 0.039 | tozasertib -0.009 | doramapimod 0.05 | bafetinib 0.012 | [6] 0.04

Quoted at random: 2 records from the list, in no set order.
STRBP (UniProt Q96SI9)
inactive: alvocidib -0.043 | Tubastatin A -0.023 | [1] 0.03 | defactinib 0.011 | [2] 0.087 | encorafenib 0.067 | [3] 0.098 | alisertib -0.003 | [4] 0.012 | gefitinib -0.004 | lapatinib -0.005 | pictilisib 0 | crizotinib -0.006 | [5] -0.016 | duvelisib -0.008 | gandotinib 0.039 | tozasertib -0.009 | doramapimod 0.05 | bafetinib 0.012 | [6] 0.04

STT3A (UniProt P46977)
inactive: alvocidib -0.006 | Tubastatin A -0.041 | [1] -0.007 | defactinib 0.009 | [2] -0.116 | encorafenib 0.053 | [3] -0.042 | alisertib 0.046 | [4] -0.07 | gefitinib 0.034 | lapatinib -0.016 | pictilisib -0.001 | crizotinib -0.001 | [5] -0.065 | duvelisib 0.015 | gandotinib -0.008 | tozasertib 0.017 | doramapimod 0.042 | bafetinib -0.031 | [6] 0.041

Further entries follow:

STK11IP (UniProt Q8N1F8)
inactive: alvocidib 0.013 | Tubastatin A -0.005 | [1] -0.025 | defactinib 0.041 | [2] -0.014 | encorafenib 0.053 | [3] 0.062 | alisertib -0.026 | [4] 0.025 | gefitinib 0.069 | lapatinib 0.022 | pictilisib 0.012 | crizotinib -0.022 | [5] 0.004 | duvelisib -0.052 | gandotinib -0.019 | tozasertib -0.014 | doramapimod 0.037 | bafetinib -0.008 | [6] 0.036

SUDS3 (UniProt Q9H7L9)
inactive: alvocidib 0 | Tubastatin A 0.005 | [1] 0.006 | defactinib -0.007 | [2] 0.01 | encorafenib 0.022 | [3] -0.006 | alisertib -0.033 | [4] -0.012 | gefitinib 0.017 | lapatinib 0.008 | pictilisib 0.014 | crizotinib -0.035 | [5] -0.08 | duvelisib 0.017 | gandotinib 0.01 | tozasertib 0.001 | doramapimod -0.01 | bafetinib -0.059 | [6] 0.047

STXBP3 (UniProt O00186)
inactive: alvocidib -0.024 | Tubastatin A -0.07 | [1] 0.027 | defactinib 0.018 | [2] 0.029 | encorafenib -0.008 | [3] 0.005 | alisertib -0.029 | [4] 0.011 | gefitinib -0.023 | lapatinib 0.008 | pictilisib -0.104 | crizotinib 0.037 | [5] 0.055 | duvelisib 0.007 | gandotinib -0.115 | tozasertib -0.006 | doramapimod -0.055 | bafetinib -0.047 | [6] -0.037

STRN3 (UniProt Q13033)
inactive: alvocidib 0.063 | Tubastatin A 0.036 | [1] 0.034 | defactinib 0.003 | [2] -0.05 | encorafenib 0.016 | [3] -0.014 | alisertib -0.045 | [4] -0.016 | gefitinib 0.051 | lapatinib 0.006 | pictilisib -0.01 | crizotinib 0.014 | [5] 0.133 | duvelisib 0.008 | gandotinib -0.085 | tozasertib 0.03 | doramapimod 0.021 | bafetinib 0.088 | [6] -0.117

SUMF2 (UniProt Q8NBJ7)
inactive: alvocidib -0.015 | Tubastatin A -0.052 | [1] -0.057 | defactinib 0.009 | [2] -0.016 | encorafenib -0.015 | [3] 0.053 | alisertib -0.023 | [4] 0.026 | gefitinib 0.056 | lapatinib 0.038 | pictilisib 0.003 | crizotinib -0.045 | [5] -0.034 | duvelisib 0.073 | gandotinib 0.045 | tozasertib -0.038 | doramapimod 0.017 | bafetinib 0.053 | [6] 0.022

SUMO2 (UniProt P61956)
inactive: alvocidib -0.051 | Tubastatin A 0.04 | [1] -0.102 | defactinib 0.016 | [2] 0.074 | encorafenib -0.005 | [3] -0.132 | alisertib 0 | [4] 0.025 | gefitinib -0.003 | lapatinib 0.046 | pictilisib 0.05 | crizotinib -0.038 | [5] 0.042 | duvelisib 0.175 | gandotinib 0.015 | tozasertib 0.102 | doramapimod 0.025 | bafetinib 0.034 | [6] 0.025

STK11 (UniProt Q15831)
inactive: alvocidib -0.017 | Tubastatin A -0.001 | [1] -0.034 | defactinib 0.041 | [2] -0.048 | encorafenib 0.024 | [3] -0.001 | alisertib -0.018 | [4] 0 | gefitinib 0.009 | lapatinib 0.095 | pictilisib -0.016 | crizotinib -0.048 | [5] -0.009 | duvelisib 0.054 | gandotinib -0.016 | tozasertib -0.062 | doramapimod 0.028 | bafetinib -0.101 | [6] 0.012
